According to US9668959B2, “A3 adenosine receptor ligands for modulation of pigmentation” (ORADIN PHARMACEUTICAL LTD., priority 2009, dated 2017):
Some results were stated once for a whole list of compounds, not compound by compound. For at least one compound, name, drawing or mass did not settle the structure.

Test system: Akt
Assay: Akt phosphorylation in serum starved B16 melanocytes (western blot)
Assay type: cell-based, murine
Conditions: 10 μM, serum starved cells
Method: B16 melanocytes grown in 6-well plates were serum starved overnight and then incubated in the presence of IB-MECA or MRS-1523 (10 μM), for different time intervals at 37° C. Cells were then rinsed with ice cold PBS and lysed by addition of RIPA buffer containing: proteinase inhibitor (PIC, 1:50 v/v), 0.1 mM phenylmethylsulphonylfluoride (PMSF) and 1 mM sodium orthovandate. Cells debris was removed by centrifugation. The protein level in the supernatants was determined using BSA as standard. Equal amounts of the sample (20 μg) were separated by SDS-PAGE using 10% polyacrylamide gels. The resolved proteins were then electroblotted onto nitrocellulose membrane. Membranes were blocked with 1% bovine serum albumin and incubated with anti-ERK-2 antibody (1:1000) or anti-phospho-ERK antibody (1:10000) for 1 h at room temperature, or with anti-Akt-1 antibody (1:1000) or with anti-phospho-Akt antibody […] at 4° C. for 24 h. Blots were then washed and incubated with horseradish peroxidase (conjugated secondary antibodies), for 1 hour at room temperature. The proteins were detected using ECL kit. For the detection of ERK phosphorylation after 72 hours of exposure to the ligands, non-starved cells were used (with 10% FCS).

## CNC(=O)[C@H]1O[C@@H](n2cnc3c(NCc4cccc(I)c4)ncnc32)[C@H](O)[C@@H]1O [IB-MECA, N^6-(3-iodobenzyl) adenosine-5′-(N-methyluronamide)]
  time to induced phosphorylation of Akt: ≤ 10 min
